PubChem BioAssay AID652272 – Drosophila RNAi Screening Center, 2013
Test: 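Finding fly genes that regulate Hedgehog signal transduction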 (primary screen). System: Drosophila clone 8 (Cl8) cells. Reagent: long dsRNA against Drosophila genes. Read-out: 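Firefly light from a Hedgehog-responsive ptc promoter reporter and Renilla reference light, both read on a plate reader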. Scale: firefly Hh reporter signal: higher = more ptc reporter light; Renilla reference signal: higher = more Renilla control light. Rule for the call: 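Called a hit if the two-replicate mean z-score lies below -2 or above +3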. Calls: active = hit: reporter lowered or raised; inactive = not a hit.
In all, the deposit lists about 21,000 reagents; this is a random part of those that have a named target and a result. In the full data, 503 (2.4%) got an active call. 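Raw plate light values, not normalised; calls rest on replicate z-scores that were not deposited; hits include reporter decreases as well as increases.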 Names joined by + are all predicted targets of the reagent. Not stated in the record: the amount of reagent, the time to read-out.

CG1671 [DRSC06617] showed firefly Hh reporter signal, replicate 1 = 52512; firefly Hh reporter signal, replicate 2 = 59585; Renilla reference signal, replicate 1 = 2529; Renilla reference signal, replicate 2 = 2548; inactive.
CG34251 [DRSC09498] showed firefly Hh reporter signal, replicate 1 = 3.46e5; Renilla reference signal, replicate 1 = 7312; inactive.
CG34251 [DRSC09500] scored firefly Hh reporter signal, replicate 1 = 2.73e5; Renilla reference signal, replicate 1 = 6791; inactive.
CG32085 [DRSC10138] gave firefly Hh reporter signal, replicate 1 = 69322; firefly Hh reporter signal, replicate 2 = 68813; firefly Hh reporter signal, replicate 3 = 62517; Renilla reference signal, replicate 1 = 5283; Renilla reference signal, replicate 2 = 5207; inactive.
Depletion of CG32085 [DRSC10139] gave: firefly Hh reporter signal, replicate 1 = 71674; firefly Hh reporter signal, replicate 2 = 67451; firefly Hh reporter signal, replicate 3 = 78859; Renilla reference signal, replicate 1 = 5673; Renilla reference signal, replicate 2 = 5942; inactive.
With knock-down of CG32085 [DRSC10576] the results were firefly Hh reporter signal, replicate 1 = 84535; firefly Hh reporter signal, replicate 2 = 27728; firefly Hh reporter signal, replicate 3 = 61780; Renilla reference signal, replicate 1 = 3797; Renilla reference signal, replicate 2 = 5708; inactive.
CG30412 [DRSC04564] gave firefly Hh reporter signal, replicate 1 = 89264; firefly Hh reporter signal, replicate 2 = 4.08e5; firefly Hh reporter signal, replicate 3 = 42448; Renilla reference signal, replicate 1 = 3517; Renilla reference signal, replicate 2 = 24378; inactive.
Against scramb2 (scramblase 2) [DRSC08543], the entry reads firefly Hh reporter signal, replicate 1 = 72096; firefly Hh reporter signal, replicate 2 = 49988; Renilla reference signal, replicate 1 = 2084; Renilla reference signal, replicate 2 = 3393; inactive.
With knock-down of CG4854 [DRSC15663], the record shows firefly Hh reporter signal, replicate 1 = 4.70e5; firefly Hh reporter signal, replicate 2 = 1.08e5; Renilla reference signal, replicate 1 = 27194; Renilla reference signal, replicate 2 = 3424; inactive.
Silencing of mRpL10 (mitochondrial ribosomal protein L10) [DRSC00312] resulted in: firefly Hh reporter signal, replicate 1 = 1.47e5; firefly Hh reporter signal, replicate 2 = 65979; Renilla reference signal, replicate 1 = 4720; Renilla reference signal, replicate 2 = 2513; inactive.
CG14285 [DRSC14766] showed firefly Hh reporter signal, replicate 1 = 5.45e5; firefly Hh reporter signal, replicate 2 = 1.12e5; Renilla reference signal, replicate 1 = 33296; Renilla reference signal, replicate 2 = 3053; inactive.
After knock-down of Cpr100A (Cuticular protein 100A) [DRSC14465], the screen gave firefly Hh reporter signal, replicate 1 = 94797; firefly Hh reporter signal, replicate 2 = 1.35e5; Renilla reference signal, replicate 1 = 2951; Renilla reference signal, replicate 2 = 6976; inactive.

Copied from the list.
Value for Cpr100A (Cuticular protein 100A) [DRSC14465] in “firefly Hh reporter signal, replicate 1”: 94797
CG4854 [DRSC15663], Renilla reference signal, replicate 1 → 27194
Under “Renilla reference signal, replicate 1”, CG32085 [DRSC10138] is entered as 5283
For “Renilla reference signal, replicate 2”, CG14285 [DRSC14766] is entered as 3053

The results go on.
skd (skuld) [DRSC11898] gave firefly Hh reporter signal, replicate 1 = 82242; firefly Hh reporter signal, replicate 2 = 1.01e5; Renilla reference signal, replicate 1 = 2903; Renilla reference signal, replicate 2 = 3414; inactive.
For CG3611 [DRSC04395], the entry reads firefly Hh reporter signal, replicate 1 = 66630; firefly Hh reporter signal, replicate 2 = 41667; Renilla reference signal, replicate 1 = 1639; Renilla reference signal, replicate 2 = 1505; inactive.
B52 [DRSC14121] scored firefly Hh reporter signal, replicate 1 = 2.62e5; firefly Hh reporter signal, replicate 2 = 2.13e5; Renilla reference signal, replicate 1 = 10146; Renilla reference signal, replicate 2 = 6880; inactive.
After knock-down of CG31360 [DRSC13255], the screen gave firefly Hh reporter signal, replicate 1 = 44361; firefly Hh reporter signal, replicate 2 = 2.11e5; Renilla reference signal, replicate 1 = 10555; Renilla reference signal, replicate 2 = 5312; inactive.
With knock-down of dsb (debris buster) [DRSC08407] the results were firefly Hh reporter signal, replicate 1 = 44480; firefly Hh reporter signal, replicate 2 = 12949; Renilla reference signal, replicate 1 = 2064; Renilla reference signal, replicate 2 = 1360; inactive.
Against dsb (debris buster) [DRSC08542], the values are firefly Hh reporter signal, replicate 1 = 74477; firefly Hh reporter signal, replicate 2 = 36902; Renilla reference signal, replicate 1 = 2224; Renilla reference signal, replicate 2 = 3008; inactive.
With knock-down of CG30395 [DRSC03896] the results were firefly Hh reporter signal, replicate 1 = 1.39e5; firefly Hh reporter signal, replicate 2 = 2.52e5; Renilla reference signal, replicate 1 = 3687; Renilla reference signal, replicate 2 = 11541; inactive.
Depletion of CG14043 [DRSC02368] gave: firefly Hh reporter signal, replicate 1 = 1.08e5; firefly Hh reporter signal, replicate 2 = 39440; Renilla reference signal, replicate 1 = 2841; Renilla reference signal, replicate 2 = 3884; inactive.
CG31266 [DRSC15747] gave firefly Hh reporter signal, replicate 1 = 62019; firefly Hh reporter signal, replicate 2 = 96976; Renilla reference signal, replicate 1 = 1712; Renilla reference signal, replicate 2 = 2819; inactive.
With knock-down of Hand [DRSC02656] the results were firefly Hh reporter signal, replicate 1 = 1.35e5; firefly Hh reporter signal, replicate 2 = 47867; Renilla reference signal, replicate 1 = 3250; Renilla reference signal, replicate 2 = 4201; inactive.
With knock-down of wmd (wing morphogenesis defect) [DRSC04436], the screen gave firefly Hh reporter signal, replicate 1 = 85208; firefly Hh reporter signal, replicate 2 = 48493; Renilla reference signal, replicate 1 = 2640; Renilla reference signal, replicate 2 = 1864; inactive.
lncRNA:CR9284 (long non-coding RNA:CR9284) [DRSC03899] gave firefly Hh reporter signal, replicate 1 = 1.14e5; firefly Hh reporter signal, replicate 2 = 2.11e5; Renilla reference signal, replicate 1 = 3018; Renilla reference signal, replicate 2 = 10070; inactive.
After knock-down of lncRNA:CR9284 (long non-coding RNA:CR9284) [DRSC04536], the screen gave firefly Hh reporter signal, replicate 1 = 87684; firefly Hh reporter signal, replicate 2 = 65094; Renilla reference signal, replicate 1 = 3213; Renilla reference signal, replicate 2 = 2568; inactive.
For EloB (Elongin B) [DRSC16663] the deposit lists firefly Hh reporter signal, replicate 1 = 6.45e5; firefly Hh reporter signal, replicate 2 = 1.21e5; Renilla reference signal, replicate 1 = 36855; Renilla reference signal, replicate 2 = 3404; inactive.
With knock-down of CG42455 + vnc [DRSC09867], the record shows firefly Hh reporter signal, replicate 1 = 1.09e5; firefly Hh reporter signal, replicate 2 = 77146; Renilla reference signal, replicate 1 = 5380; Renilla reference signal, replicate 2 = 3493; inactive.
